Article PMC8675914
No constants are given. Whether binding was seen depends on the method and setting. In cells and extracts the contact can be indirect. Some results given as binding are weak or reduced against the parent protein; the word gives no strength.

Amino acid sequences for entries named in this document (tags omitted). A change or cut given only in a name is not applied to a line headed by its entry. Chains listed by the source or under a name are the forms on record and can include a tag or linker. Residues count along the entry.
UniProt Q15418: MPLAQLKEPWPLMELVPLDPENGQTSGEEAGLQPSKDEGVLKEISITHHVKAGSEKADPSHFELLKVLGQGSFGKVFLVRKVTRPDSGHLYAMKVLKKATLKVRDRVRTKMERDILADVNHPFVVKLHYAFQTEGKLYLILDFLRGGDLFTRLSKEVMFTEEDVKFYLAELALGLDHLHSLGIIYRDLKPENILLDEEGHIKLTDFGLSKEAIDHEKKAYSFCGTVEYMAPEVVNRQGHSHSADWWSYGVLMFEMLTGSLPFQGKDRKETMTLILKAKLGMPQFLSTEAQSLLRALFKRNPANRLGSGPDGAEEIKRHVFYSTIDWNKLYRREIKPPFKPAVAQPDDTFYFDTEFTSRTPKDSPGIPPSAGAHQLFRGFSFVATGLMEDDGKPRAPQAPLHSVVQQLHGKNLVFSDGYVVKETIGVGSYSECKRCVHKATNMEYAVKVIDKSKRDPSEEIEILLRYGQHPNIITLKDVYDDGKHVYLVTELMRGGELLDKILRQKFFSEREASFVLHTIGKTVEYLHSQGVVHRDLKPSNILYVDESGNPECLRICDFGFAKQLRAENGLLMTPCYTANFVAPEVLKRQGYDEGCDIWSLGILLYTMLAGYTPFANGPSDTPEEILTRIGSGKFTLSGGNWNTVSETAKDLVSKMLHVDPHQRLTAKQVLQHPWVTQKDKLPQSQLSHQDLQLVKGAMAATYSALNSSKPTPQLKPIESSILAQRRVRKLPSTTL
RSK1^K110/335/421R SUMOylation deficient mutant (Q15418, form named): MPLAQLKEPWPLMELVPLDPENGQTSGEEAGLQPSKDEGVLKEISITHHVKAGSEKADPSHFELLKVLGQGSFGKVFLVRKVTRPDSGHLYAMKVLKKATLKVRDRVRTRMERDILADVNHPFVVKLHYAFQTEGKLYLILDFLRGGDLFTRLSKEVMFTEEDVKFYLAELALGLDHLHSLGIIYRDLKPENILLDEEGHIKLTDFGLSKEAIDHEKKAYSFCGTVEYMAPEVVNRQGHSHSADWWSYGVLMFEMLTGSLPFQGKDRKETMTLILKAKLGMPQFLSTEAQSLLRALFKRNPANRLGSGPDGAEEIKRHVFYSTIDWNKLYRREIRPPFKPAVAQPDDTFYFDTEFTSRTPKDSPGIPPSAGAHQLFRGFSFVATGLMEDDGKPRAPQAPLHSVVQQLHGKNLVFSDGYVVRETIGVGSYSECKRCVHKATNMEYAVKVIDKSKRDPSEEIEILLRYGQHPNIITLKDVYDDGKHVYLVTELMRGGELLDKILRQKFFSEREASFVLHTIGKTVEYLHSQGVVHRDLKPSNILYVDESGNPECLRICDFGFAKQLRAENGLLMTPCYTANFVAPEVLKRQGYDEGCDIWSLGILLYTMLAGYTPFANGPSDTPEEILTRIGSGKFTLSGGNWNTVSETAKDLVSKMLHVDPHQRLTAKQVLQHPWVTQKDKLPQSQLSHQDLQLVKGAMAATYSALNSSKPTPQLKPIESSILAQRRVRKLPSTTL
UniProt F5HDE4: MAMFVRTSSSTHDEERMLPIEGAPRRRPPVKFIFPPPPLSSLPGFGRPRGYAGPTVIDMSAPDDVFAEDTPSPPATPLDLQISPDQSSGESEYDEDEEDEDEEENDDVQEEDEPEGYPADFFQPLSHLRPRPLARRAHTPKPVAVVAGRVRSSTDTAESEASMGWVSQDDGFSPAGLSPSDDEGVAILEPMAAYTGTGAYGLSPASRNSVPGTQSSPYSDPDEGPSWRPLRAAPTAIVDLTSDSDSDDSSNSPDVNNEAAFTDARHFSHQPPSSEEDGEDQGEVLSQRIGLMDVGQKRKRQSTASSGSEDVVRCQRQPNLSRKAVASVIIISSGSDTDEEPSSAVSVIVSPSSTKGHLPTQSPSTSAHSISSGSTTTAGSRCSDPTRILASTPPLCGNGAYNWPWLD
UniProt P63165, residues 1-97: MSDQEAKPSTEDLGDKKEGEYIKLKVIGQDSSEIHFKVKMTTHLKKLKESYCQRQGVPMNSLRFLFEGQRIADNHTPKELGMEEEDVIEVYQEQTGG

How the values were obtained:
[1] = biological target: RSK1^K110/335/421R SUMOylation deficient mutant (human) (UniProt Q15418); test: co-IP
[2] = biological target: wild-type RSK1 (p90 ribosomal S6 kinase 1) (human) (UniProt Q15418); test: co-IP
[3] = biological target: GST-tagged eIF4B SIM^WT peptide (human); test: pull-down; GST fusion on Glutathione Sepharose 4B incubated with HEK293T whole cell lysate (20 mM Tris-HCl pH 7.5, 0.5% NP-40, 150 mM NaCl) for 2 h at 4 °C; immunoblot; only the target purified

| binding [3] | Substance | binding [1] | binding [2] |
| --- | --- | --- | --- |
|  | KSHV ORF45 (from UniProt F5HDE4 1-407) | binds | binds |
| binds | endogenous SUMO1 (from UniProt P63165 1-97) |  |  |
| binds | endogenous RSK1 (from UniProt Q15418 1-735) (enzyme) |  |  |
